# Results taken from PubChem BioAssay AID2685 (National Center for Advancing Translational Sciences (NCATS), 2010).
# This is one part of the list. Further columns of the screen follow, without active or inactive calls. The list favours compounds with an active or inconclusive main result. Potencies come from curve fits of mixed quality, noted in brackets.
# Test: qHTS Assay for Lipid Storage Modulators in Drosophila S3 Cells;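 as to cell number change: cells counted by Cell Tracker Red CMTPX staining in the red channel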
# Conditions: BODIPY lipid droplet fluorescence, 18-24 h; for cell number change: measured here: cell count max response, cells fed with added oleic acid
# Method in brief: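 Drosophila S3 cells got compounds at several concentrations plus oleic acid (400 uM solution). Laser-scanning cytometry with 488 nm excitation read lipid droplets at 500-530 nm and cells at 575-640 nm. Percent activity was relative to 20 uM Triacsin C.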
# [1] = measured here: lipid fluorescence (Fed channel) AC50, cells fed with added oleic acid
# [2] = measured here: cell number channel AC50, cells fed with added oleic acid
SMILES,cell number change,AC50 [1],AC50 [2]
O=C(COC(=O)c1cc([N+](=O)[O-])ccc1NCc1ccccc1Cl)NCC(F)(F)F,-14.7%,"7.31 µM [falling, partial curve, poor fit]",–
Cc1cc(=O)n(CCO)c(O)c1C#N,-6.72%,"6.51 µM [falling, partial curve]",–
Cn1nc([N+](=O)[O-])nc1Oc1ccccc1N,13%,–,–
COc1ccc(S(=O)Cc2ccc(C(=O)N3CCN(C(=O)c4ccco4)CC3)o2)cc1 (configuration not stated),-51%,"29.1 µM [falling, single point]","29.1 µM [falling, single point]"
Cc1nc2nc(-c3ccco3)[nH]n2c(=O)c1Cc1ccccc1,-128%,"4.11 µM [falling, full curve]","23.1 µM [falling, partial curve]"
CCOC(=O)C(=O)N/N=C(/c1ccccc1)c1ccc(OC)cc1,-29.3%,"1.03 µM [falling, full curve, poor fit]","1.3 µM [falling, full curve, poor fit]"
CC(C)(C)NC(=O)COC(=O)c1ccc(F)cc1Cl,12.9%,–,–
COC(=O)c1c(NC(=O)c2nc3ccccc3s2)sc2c1CCN(C(C)=O)C2,-37.8%,"3.66 µM [falling, full curve]","23.1 µM [falling, partial curve]"
O=C(O)CP(=O)(c1ccccc1)c1ccccc1,-1.46%,"6.51 µM [falling, single point]",–
CSc1nc(O)cc(=O)n1-c1ccc(F)cc1,8.25%,"6.51 µM [falling, single point]","6.51 µM [falling, single point]"
CC12CCC(=O)N1C(C(=O)Nc1nnc(SCc3ccccc3)s1)CS2 (configuration not stated),-3.06%,"0.103 µM [falling, full curve, poor fit]",–
COC(=O)COc1ccc(S(=O)(=O)N2CCOCC2)cc1C,-18.9%,"0.146 µM [falling, full curve]","0.0184 µM [falling, full curve, poor fit]"
O=C(NC1CCCC1)c1cccc(S(=O)(=O)N2CCCCC2)c1,-8.02%,"0.326 µM [falling, partial curve, poor fit]",–
Cc1ccccc1NCC(=O)N/N=C/c1c(C)c(C(=O)c2ccc(Cl)cc2)n2ccccc12,-2.73%,–,–
CCOC(=O)c1ccc(NC(=O)Cn2nnc(-c3ccccc3F)n2)cc1,–,"13 µM [rising, partial curve, poor fit]","1.64 µM [falling, single point]"
CN(Cc1ccccn1)Cc1nc(COc2ccccc2)no1,52.1%,"25.9 µM [rising, partial curve]","5.17 µM [rising, full curve]"
Cc1ccc(CN(CC(=O)NC2CCCCC2)C(=O)c2csnn2)cc1,6.84%,"3.66 µM [rising, partial curve]",–
CC1(C)CC(=O)C2=C(C1)Nc1ncnn1C2c1cccs1 (configuration not stated),14.3%,"0.731 µM [falling, single point]",–
CCOC(=O)C1C(=O)NC(N2CCCCC2)=NC1c1ccco1 (configuration not stated),-14.9%,"0.00461 µM [falling, full curve, poor fit]",–

# Reprinted at random: 2 entries already listed
SMILES,cell number change,AC50 [1],AC50 [2]
COC(=O)COc1ccc(S(=O)(=O)N2CCOCC2)cc1C,-18.9%,"0.146 µM [falling, full curve]","0.0184 µM [falling, full curve, poor fit]"
O=C(O)CP(=O)(c1ccccc1)c1ccccc1,-1.46%,"6.51 µM [falling, single point]",–

# Next entries follow.

SMILES,cell number change,AC50 [1],AC50 [2]
COc1cc(OC)c(-c2nn3c(-c4ccco4)nnc3s2)cc1OC,-18.3%,"18.4 µM [falling, single point]",–
Cc1c(NC(=O)C(C)OC(=O)CCc2c[nH]c3ccccc23)c(=O)n(-c2ccccc2)n1C (configuration not stated),16.5%,"29.1 µM [rising, single point]",–
CCCCN(C)C(=O)c1cn(CC)c2nc(C)ccc2c1=O,30%,"2.06 µM [rising, partial curve]",–
Cc1cc(C)c(C(=O)NC2CCCc3c2cnn3-c2ccc(C)c(C)c2)c(=O)[nH]1 (configuration not stated),-30.7%,"29.1 µM [falling, single point]",–
Fc1ccc(Nc2nc(-c3ccncc3)cs2)cc1,59.2%,–,"0.366 µM [rising, full curve]"
COc1ccc(Nc2nc(-c3cccs3)nc3ccccc23)c(OC)c1,3.34%,"6.51 µM [falling, single point]",–
COc1ccc(C(=O)Oc2ccc(/C=N/Nc3ccc(Cl)c(C(=O)O)c3)cc2OC)cc1,2.02%,"4.61 µM [rising, full curve]",–
Cc1nn(Cc2ccccc2)c(C)c1NC(=O)c1noc2c1CCc1ccccc1-2,-24.6%,–,–
O=C1OCCN/C1=C\C(=O)c1ccccc1,-16.6%,"6.51 µM [falling, single point]","5.8 µM [falling, single point]"
COc1cc(O)oc1C=Nc1ccc(Cl)cc1,-14.1%,"0.651 µM [falling, single point]",–
COc1ccc(CCNC(=O)c2ccccc2NC(=O)c2ccco2)cc1OC,–,"0.13 µM [falling, full curve, poor fit]",–
CCCCCCCc1c(O)nc(SCCN(C)C)[nH]c1=O,14.9%,"1.3 µM [rising, full curve, poor fit]",–
Cc1cccc(C(=O)NCC(c2cccs2)N2CCOCC2)c1 (configuration not stated),88.8%,"11.6 µM [rising, partial curve]","5.17 µM [rising, full curve]"
COc1ccccc1NC(=O)CCc1nc(-c2cccs2)no1,2.95%,–,–
COCCN(Cc1ccccc1)C(=O)c1cc(-c2ccc(OC)c(OC)c2)nc2ccccc12,-1.33%,–,–
COc1ccccc1/C=C1\C(=O)Nc2ccccc21,-16.2%,–,–
C=CCOc1ccc(/C=C/C(=O)OCC(=O)N(C)CC(=O)Nc2ccc(F)cc2)cc1,25%,–,"0.00517 µM [rising, full curve, poor fit]"
COc1cc(O)c(C(CCN2CCOCC2)c2cc(OC)c(OC)c(OC)c2)c(OC)c1 (configuration not stated),–,"29.1 µM [rising, single point]",–
Cc1cc(C(=O)N/N=C2\CC(=O)CC(C)(C)C2)c(C)n1-c1ccccc1,-9.62%,"0.58 µM [rising, partial curve, poor fit]","0.58 µM [rising, single point]"
